# According to publication PMC7176661:
# Protein sequences, listed by entry. Tags and fused reporters are not part of them. Lines headed by an entry give the natural chain unless they say otherwise; changes in a name come on top.
# UniProt P06709: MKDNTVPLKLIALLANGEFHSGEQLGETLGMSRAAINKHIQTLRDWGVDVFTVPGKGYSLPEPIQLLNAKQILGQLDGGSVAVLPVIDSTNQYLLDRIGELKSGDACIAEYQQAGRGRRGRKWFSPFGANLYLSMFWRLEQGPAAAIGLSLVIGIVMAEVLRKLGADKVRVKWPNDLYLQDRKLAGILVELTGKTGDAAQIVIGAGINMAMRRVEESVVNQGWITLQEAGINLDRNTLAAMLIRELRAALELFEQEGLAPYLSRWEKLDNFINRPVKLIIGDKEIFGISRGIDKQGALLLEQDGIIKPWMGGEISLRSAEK
# T1: Tks5-BirA* (wild type Tks5α fused to the N-terminus of BirA*-HA) (UniProt Q5TCZ1)
# T1 sequence: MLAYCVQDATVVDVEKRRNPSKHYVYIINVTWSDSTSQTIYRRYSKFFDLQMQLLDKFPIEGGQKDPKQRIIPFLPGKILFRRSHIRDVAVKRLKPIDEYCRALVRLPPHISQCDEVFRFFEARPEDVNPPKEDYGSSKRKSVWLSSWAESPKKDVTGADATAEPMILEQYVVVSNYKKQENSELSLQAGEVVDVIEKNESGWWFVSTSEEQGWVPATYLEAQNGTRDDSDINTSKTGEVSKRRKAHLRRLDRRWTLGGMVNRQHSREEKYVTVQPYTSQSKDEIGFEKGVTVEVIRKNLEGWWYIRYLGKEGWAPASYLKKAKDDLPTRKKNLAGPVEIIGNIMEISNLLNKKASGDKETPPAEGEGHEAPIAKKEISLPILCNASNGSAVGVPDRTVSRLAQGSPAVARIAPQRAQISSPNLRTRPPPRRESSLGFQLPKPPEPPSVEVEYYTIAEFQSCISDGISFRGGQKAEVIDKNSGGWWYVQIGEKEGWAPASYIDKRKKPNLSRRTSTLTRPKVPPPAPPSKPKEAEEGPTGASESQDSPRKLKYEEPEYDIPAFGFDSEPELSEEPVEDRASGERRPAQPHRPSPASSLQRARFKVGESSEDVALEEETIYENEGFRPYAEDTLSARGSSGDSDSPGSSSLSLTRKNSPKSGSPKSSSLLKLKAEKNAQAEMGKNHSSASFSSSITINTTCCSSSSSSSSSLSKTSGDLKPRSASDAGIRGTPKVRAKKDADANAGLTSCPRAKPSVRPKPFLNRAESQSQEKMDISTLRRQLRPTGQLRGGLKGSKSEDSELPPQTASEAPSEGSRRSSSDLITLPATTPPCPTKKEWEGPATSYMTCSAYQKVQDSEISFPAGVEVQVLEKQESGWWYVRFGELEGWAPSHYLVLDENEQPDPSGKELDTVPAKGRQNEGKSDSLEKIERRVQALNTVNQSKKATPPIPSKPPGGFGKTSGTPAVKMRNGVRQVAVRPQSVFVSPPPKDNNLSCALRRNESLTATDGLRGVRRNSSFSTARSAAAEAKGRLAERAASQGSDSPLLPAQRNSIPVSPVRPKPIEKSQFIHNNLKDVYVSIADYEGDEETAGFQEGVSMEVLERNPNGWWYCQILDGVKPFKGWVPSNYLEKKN
# B1: Cdc42 guanine exchange factor FGD1 (protein, UniProt P98174 1-961)
# chain: MHGHRAPGGAGPSEPEHPATNPPGAAPPACADSDPGASEPGLLARRGSGSALGGPLDPQFVGPSDTSLGAAPGHRVLPCGPSPQHHRALRFSYHLEGSQPRPGLHQGNRILVKSLSLDPGQSLEPHPEGPQRLRSDPGPPTETPSQRPSPLKRAPGPKPQVPPKPSYLQMPRMPPPLEPIPPPPSRPLPADPRVAKGLAPRAEASPSSAAVSSLIEKFEREPVIVASDRPVPGPSPGPPEPVMLPQPTSQPPVPQLPEGEASRCLFLLAPGPRDGEKVPNRDSGIDSISSPSNSEETCFVSDDGPPSHSLCPGPPALASVPVALADPHRPGSQEVDSDLEEEDDEEEEEEKDREIPVPLMERQESVELTVQQKVFHIANELLQTEKAYVSRLHLLDQVFCARLLEEARNRSSFPADVVHGIFSNICSIYCFHQQFLLPELEKRMEEWDRYPRIGDILQKLAPFLKMYGEYVKNFDRAVELVNTWTERSTQFKVIIHEVQKEEACGNLTLQHHMLEPVQRIPRYELLLKDYLLKLPHGSPDSKDAQKSLELIATAAEHSNAAIRKMERMHKLLKVYELLGGEEDIVSPTKELIKEGHILKLSAKNGTTQDRYLILFNDRLLYCVPRLRLLGQKFSVRARIDVDGMELKESSNLNLPRTFLVSGKQRSLELQARTEEEKKDWVQAINSTLLKHEQTLETFKLLNSTNREDEDTPPNSPNVDLGKRAPTPIREKEVTMCMRCQEPFNSITKRRHHCKACGHVVCGKCSEFRARLVYDNNRSNRVCTDCYVALHGVPGSSPACSQHTPQRRRSILEKQASVAAENSVICSFLHYMEKGGKGWHKAWFVVPENEPLVLYIYGAPQDVKAQRSLPLIGFEVGPPEAGERPDRRHVFKITQSHLSWYFSPETEELQRRWMAVLGRAGRGDTFCPGPTLSEDREMEEAPVAALGATAEPPESPQTRDKT
# Experiments:
# [1] = target: T1, Tks5-BirA* (wild type Tks5α fused to the N-terminus of BirA*-HA); experiment: proximity labelling; BioID in living MDA-MB-231 cells stably expressing the BirA* fusion, seeded on gelatin, 50 uM biotin for 16 h; lysis (500 mM NaCl, 0.4% SDS, 2% Triton X-100); biotinylated proteins captured on avidin-coated beads; western blot with specific antibodies; also after knock-down of endogenous Tks5 (biotinylation unchanged)
# [2] = target: ΔPX-Tks5-BirA* (Tks5α lacking its PX domain fused to the N-terminus of BirA*-HA); experiment: as above
# [3] = target: BirA* alone (BirA(R118G)-HA) (UniProt P06709); experiment: as above
# [4] = target: T1, Tks5-BirA* (wild type Tks5α fused to the N-terminus of BirA*-HA); experiment: proximity labelling; BioID in living MDA-MB-231 cells stably expressing the BirA* fusion, seeded on gelatin, 50 uM biotin for 16 h; avidin-bead capture; LC-MS/MS with label-free quantification against the BirA* control pulldown, 1% permutation FDR
binder,measurement,setting,value
B1,binding,[1],binds
same,binding,[2],no binding
same,binding,[3],no binding
same,binding,[4],binds

# Results are given in words; binding and its absence hold for the method and conditions named. Binding seen in cells or lysates may run through a third protein. A yes stands for co-enrichment or nearness to the bait. Other partners may have been found. For some of these results: A no says only that the protein was not detected with the bait. For some of these results: Tags and fused reporters may be left off the sequences shown.
